Test [1] deals with MEPP (mouse ovarian epithelium Trp53/Pten KO). Put plainly: cell viability relative to untreated (fraction); higher = less growth inhibition. As to conditions: 5 µM; 3 days.
In test [2] the test system is PREPP (mouse prostate epithelium Trp53/Pten KO). The test is described as above. As to conditions: 5 µM; 3 days.

Where “and” joins values, the source holds several entries; their conditions need not be identical. Equal values may be shown once. The list shows a part of the results. Single values are uncertain, as repeats are few or missing.

We go through 31 compounds from the supplement of paper PMC12873370.

With `O=C([O-])c1ccccc1O.[Na+]`, the cell viability in test [1] stood at 0.9; in test [2], 0.934.
With `CNc1ncnc2c1ncn2[C@@H]1O[C@H](CO)[C@@H](O)[C@H]1O`, the cell viability in test [1] was found to be 0.971; in test [2], 0.751.
As to `Nc1ncnc2c1ncn2C1CC(O)C(COP(=O)(O)O)O1` (configuration not stated), the results for the cell viability in test [1] and in test [2] were 0.881 and 1.02, respectively.
In the same order, the values of `C[C@H](CCC(=O)O)[C@H]1CC[C@H]2[C@@H]3[C@@H](O)C[C@@H]4C[C@H](O)CC[C@]4(C)[C@H]3CC[C@]12C` are 1.06 and 0.89.
For `Cc1coc2c1C(=O)C(=O)c1c-2ccc2c(C)cccc12`, the cell viability amounted to 0.998 in test [1] and 0.414 in test [2].
For `CC(C)=CCC[C@](C)(O[C@@H]1O[C@H](CO[C@@H]2O[C@H](CO)[C@@H](O)[C@H](O)[C@H]2O)[C@@H](O)[C@H](O)[C@H]1O)[C@H]1CC[C@]2(C)[C@@H]1[C@H](O)C[C@@H]1[C@@]3(C)CC[C@H](O[C@@H]4O[C@H](CO)[C@@H](O)[C@H](O)[C@H]4O[C@@H]4O[C@H](CO)[C@@H](O)[C@H](O)[C@H]4O)C(C)(C)[C@@H]3CC[C@]12C`, the values for the cell viability in test [1] and in test [2] were 1.16 and 1.06, respectively.
With `C=C(C)C1CC=C(/C=N/O)CC1` (configuration not stated), the cell viability in test [1] was 0.907; in test [2] it was 1.24.
As to `Cc1nnc(SCC2=C(C(=O)O)N3C(=O)[C@@H](NC(=O)Cn4cnnn4)[C@H]3SC2)s1`, the cell viability was determined as 1.11 in test [1] and 0.888 in test [2].
Consider `O=C(O)CCCC[C@@H]1SC[C@@H]2NC(=O)N[C@@H]21`, for which the cell viability in test [1] was determined as 1.27; in test [2], 0.959.
For `COc1cc2ccc(=O)oc2cc1OC`, the cell viability turned out to be 1.09 in test [1] and 0.894 in test [2].
`CO[C@H]1C(=O)[C@]2(C)[C@@H](OC)C[C@H]3OC[C@@]3(OC(C)=O)[C@H]2[C@H](OC(=O)c2ccccc2)[C@]2(O)C[C@H](OC(=O)[C@H](O)[C@@H](NC(=O)OC(C)(C)C)c3ccccc3)C(C)=C1C2(C)C`: the cell viability was determined as 0.563 in test [1] and 0.636 in test [2].
In the case of `C[C@H]1COC2=C1C(=O)C(=O)c1c2ccc2c1CCCC2(C)C`, the cell viability in test [1] stood at 1.31; in test [2], 1.34.
On the same counts, the results for `Clc1ccc(C(Cn2ccnc2)OCc2ccsc2Cl)c(Cl)c1` (configuration not stated) are 0.881 and 0.925.
With `C[C@@H]1NC(=O)[C@@H](N)CNC(=O)[C@H](C2CCNC(=N)N2)NC(=O)/C(=C/NC(N)=O)NC(=O)[C@H](CNC(=O)CC(N)CCCN)NC1=O.N=C1NCCC([C@@H]2NC(=O)/C(=C/NC(N)=O)NC(=O)[C@H](CNC(=O)CC(N)CCCN)NC(=O)[C@H](CO)NC(=O)[C@@H](N)CNC2=O)N1` (some centres not stated), the cell viability in test [1] amounted to 1.31; in test [2], 1.05.
On the same counts, the results for `C=C1C(=O)[C@]23[C@H](O)[C@H]1CC[C@H]2[C@@]12CO[C@]3(O)[C@@H](O)[C@@H]1C(C)(C)CC[C@@H]2O` are 0.637 and 0.71.
For `O=C(Nc1ncc([N+](=O)[O-])s1)c1ccccc1O`, the figures for the cell viability in test [1] and in test [2] were 0.768 and 0.987, respectively.
For `C[C@H]1[C@H](C)CC[C@]2(C(=O)O)CC[C@]3(C)C(=CC[C@@H]4[C@@]5(C)C[C@@H](O)[C@H](O)[C@@](C)(CO)[C@@H]5CC[C@]43C)[C@H]12`, the cell viability in test [1] is 2.19; in test [2], 0.879.
Take `NC(=O)c1ccc[n+]([C@@H]2O[C@H](COP(=O)([O-])OP(=O)(O)OC[C@H]3O[C@@H](n4cnc5c(N)ncnc54)[C@H](O)[C@@H]3O)[C@@H](O)[C@H]2O)c1`: the cell viability in test [1] is 1.07; in test [2] it was 1.16.
Turning to `NC(=O)NC(CC(=O)O)C(=O)O` (configuration not stated), the values for the cell viability in test [1] and in test [2] were 0.876 and 1.05, respectively.
In the case of `COc1ccc2cc3[n+](cc2c1OC)CCc1cc2c(cc1-3)OCO2`, the cell viability is 1.15 and 0.76 and 0.734 in test [1]; 1.09 and 1.11 and 1.18 in test [2].
For `COc1ccc(-c2oc3cc(O)cc(O)c3c(=O)c2O)cc1`, the values for the cell viability in test [1] and in test [2] were 1.06 and 0.855, respectively.
In the case of `C[C@@H]1O[C@@H](OC[C@H]2O[C@@H](Oc3cc(O)c4c(c3)O[C@H](c3ccc(O)c(O)c3)CC4=O)[C@H](O)[C@@H](O)[C@@H]2O)[C@H](O)[C@H](O)[C@H]1O`, the values for the cell viability in test [1] and in test [2] were 1.18 and 0.994, respectively.
In the case of `O=Cc1cccc(O)c1`, the figures for the cell viability in test [1] and in test [2] were 1.45 and 0.971, respectively.
Consider `Nc1nc(Cl)nc2c1ncn2[C@H]1C[C@H](O)[C@@H](CO)O1`, for which the cell viability in test [1] was found to be 0.916; in test [2] it was 1.03.
As to `CC(=O)N[C@@H](Cc1ccc(O)cc1)C(=O)O`, the cell viability is 0.906 in test [1] and 0.931 in test [2].
As to `C[C@@H]1CC[C@H]2C(C)(C)[C@H]3C[C@@]12CC[C@@]3(C)O`, the cell viability in test [1] was 1.03; in test [2], 0.968.
In the case of `COc1c2occc2cc2ccc(=O)oc12`, the cell viability in test [1] was 1.26; in test [2] it was 0.95.
As for `O[C@@H]1[C@@H](O)[C@@H](O)CO[C@H]1O`, the cell viability stood at 0.851 in test [1] and 1.06 in test [2].
`CCCCCCCCCCCCCCCC(=O)OC`: the cell viability stood at 1.2 in test [1] and 0.879 in test [2].
As to `Cc1ccc(O)c(O)c1`, the cell viability was 0.954 in test [1] and 0.767 in test [2].
Take `CC1(C)CC[C@]2(C(=O)O[C@@H]3O[C@H](CO[C@@H]4O[C@H](CO)[C@@H](O)[C@H](O)[C@H]4O)[C@@H](O)[C@H](O)[C@H]3O)CC[C@]3(C)C(=CC[C@@H]4[C@@]5(C)CC[C@H](O[C@@H]6OC[C@H](O)[C@H](O)[C@H]6O)[C@@](C)(CO)[C@@H]5CC[C@]43C)[C@@H]2C1`: the cell viability in test [1] was 1.4; in test [2], 1.01.
